Measured values: the supplement of paper PMC6411743
± gives the standard deviation of the averaged measurements. The entries are a selection whose mix differs from that of the whole data set. Small differences around the control level are noise.

Sequences of proteins named here, by UniProt entry; tags and fusion partners are left off. A change or cut given only in a name is not applied to a line headed by its entry.
UniProt P23434: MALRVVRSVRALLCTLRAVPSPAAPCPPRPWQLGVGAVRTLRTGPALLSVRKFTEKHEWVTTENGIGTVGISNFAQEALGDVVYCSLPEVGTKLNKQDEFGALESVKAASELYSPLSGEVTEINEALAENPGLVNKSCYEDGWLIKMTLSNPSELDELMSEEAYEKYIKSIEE
UniProt P17098: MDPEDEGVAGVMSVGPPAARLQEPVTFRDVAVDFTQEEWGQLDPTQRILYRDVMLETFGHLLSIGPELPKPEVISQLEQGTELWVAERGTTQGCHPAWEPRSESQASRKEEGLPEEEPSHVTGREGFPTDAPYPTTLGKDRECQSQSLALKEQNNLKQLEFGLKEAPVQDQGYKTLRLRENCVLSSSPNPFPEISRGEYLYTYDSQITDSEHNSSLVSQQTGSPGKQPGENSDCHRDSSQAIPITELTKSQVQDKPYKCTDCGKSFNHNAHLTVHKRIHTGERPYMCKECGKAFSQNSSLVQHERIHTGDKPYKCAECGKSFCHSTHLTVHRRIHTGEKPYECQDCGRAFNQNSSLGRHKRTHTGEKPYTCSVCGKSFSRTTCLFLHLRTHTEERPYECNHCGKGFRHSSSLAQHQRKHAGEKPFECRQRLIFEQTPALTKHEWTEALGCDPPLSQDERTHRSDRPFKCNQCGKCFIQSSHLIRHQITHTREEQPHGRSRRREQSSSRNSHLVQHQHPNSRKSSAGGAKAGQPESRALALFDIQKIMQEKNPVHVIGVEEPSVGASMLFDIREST
UniProt P19623: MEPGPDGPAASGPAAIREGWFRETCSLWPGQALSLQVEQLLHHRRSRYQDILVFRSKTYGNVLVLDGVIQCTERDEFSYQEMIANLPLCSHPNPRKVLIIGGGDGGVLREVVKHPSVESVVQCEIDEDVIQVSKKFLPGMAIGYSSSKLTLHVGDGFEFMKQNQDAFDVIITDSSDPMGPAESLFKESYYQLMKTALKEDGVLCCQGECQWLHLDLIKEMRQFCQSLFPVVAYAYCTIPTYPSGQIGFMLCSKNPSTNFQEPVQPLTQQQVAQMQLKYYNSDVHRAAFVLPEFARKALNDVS
UniProt P26368, whole entry: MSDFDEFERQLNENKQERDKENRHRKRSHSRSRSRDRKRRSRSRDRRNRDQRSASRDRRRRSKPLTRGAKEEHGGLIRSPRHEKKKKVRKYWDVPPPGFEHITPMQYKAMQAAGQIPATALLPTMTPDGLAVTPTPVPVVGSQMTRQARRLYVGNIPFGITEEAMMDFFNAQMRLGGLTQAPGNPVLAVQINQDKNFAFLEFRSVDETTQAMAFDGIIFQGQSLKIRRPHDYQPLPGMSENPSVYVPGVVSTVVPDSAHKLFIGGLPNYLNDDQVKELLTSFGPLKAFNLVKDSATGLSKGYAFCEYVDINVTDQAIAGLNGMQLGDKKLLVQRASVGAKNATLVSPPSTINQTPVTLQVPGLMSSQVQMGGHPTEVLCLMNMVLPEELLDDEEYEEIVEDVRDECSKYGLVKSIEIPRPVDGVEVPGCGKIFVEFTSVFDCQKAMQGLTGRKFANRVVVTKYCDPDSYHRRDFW
UniProt P28908: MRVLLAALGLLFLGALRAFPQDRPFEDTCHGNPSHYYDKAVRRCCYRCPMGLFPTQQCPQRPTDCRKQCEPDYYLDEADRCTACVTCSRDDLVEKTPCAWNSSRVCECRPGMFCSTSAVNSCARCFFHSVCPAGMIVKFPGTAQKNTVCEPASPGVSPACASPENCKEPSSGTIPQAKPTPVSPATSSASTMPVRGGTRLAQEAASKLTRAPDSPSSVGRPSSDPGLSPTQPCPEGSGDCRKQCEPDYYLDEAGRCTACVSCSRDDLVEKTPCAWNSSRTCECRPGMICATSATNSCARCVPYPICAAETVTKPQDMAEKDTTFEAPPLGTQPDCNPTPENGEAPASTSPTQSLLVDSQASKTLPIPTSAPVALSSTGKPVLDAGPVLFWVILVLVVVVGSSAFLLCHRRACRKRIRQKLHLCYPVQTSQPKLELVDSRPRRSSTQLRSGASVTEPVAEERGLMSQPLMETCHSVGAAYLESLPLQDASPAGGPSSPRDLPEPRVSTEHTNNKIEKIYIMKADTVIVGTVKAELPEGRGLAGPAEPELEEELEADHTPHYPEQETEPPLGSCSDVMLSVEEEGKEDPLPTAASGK
UniProt P28161: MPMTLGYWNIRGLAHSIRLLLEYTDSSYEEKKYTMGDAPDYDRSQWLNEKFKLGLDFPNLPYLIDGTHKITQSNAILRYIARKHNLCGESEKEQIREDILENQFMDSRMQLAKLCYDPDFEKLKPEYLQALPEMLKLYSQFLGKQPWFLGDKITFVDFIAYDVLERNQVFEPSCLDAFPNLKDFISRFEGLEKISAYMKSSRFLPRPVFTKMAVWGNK
UniProt P23458: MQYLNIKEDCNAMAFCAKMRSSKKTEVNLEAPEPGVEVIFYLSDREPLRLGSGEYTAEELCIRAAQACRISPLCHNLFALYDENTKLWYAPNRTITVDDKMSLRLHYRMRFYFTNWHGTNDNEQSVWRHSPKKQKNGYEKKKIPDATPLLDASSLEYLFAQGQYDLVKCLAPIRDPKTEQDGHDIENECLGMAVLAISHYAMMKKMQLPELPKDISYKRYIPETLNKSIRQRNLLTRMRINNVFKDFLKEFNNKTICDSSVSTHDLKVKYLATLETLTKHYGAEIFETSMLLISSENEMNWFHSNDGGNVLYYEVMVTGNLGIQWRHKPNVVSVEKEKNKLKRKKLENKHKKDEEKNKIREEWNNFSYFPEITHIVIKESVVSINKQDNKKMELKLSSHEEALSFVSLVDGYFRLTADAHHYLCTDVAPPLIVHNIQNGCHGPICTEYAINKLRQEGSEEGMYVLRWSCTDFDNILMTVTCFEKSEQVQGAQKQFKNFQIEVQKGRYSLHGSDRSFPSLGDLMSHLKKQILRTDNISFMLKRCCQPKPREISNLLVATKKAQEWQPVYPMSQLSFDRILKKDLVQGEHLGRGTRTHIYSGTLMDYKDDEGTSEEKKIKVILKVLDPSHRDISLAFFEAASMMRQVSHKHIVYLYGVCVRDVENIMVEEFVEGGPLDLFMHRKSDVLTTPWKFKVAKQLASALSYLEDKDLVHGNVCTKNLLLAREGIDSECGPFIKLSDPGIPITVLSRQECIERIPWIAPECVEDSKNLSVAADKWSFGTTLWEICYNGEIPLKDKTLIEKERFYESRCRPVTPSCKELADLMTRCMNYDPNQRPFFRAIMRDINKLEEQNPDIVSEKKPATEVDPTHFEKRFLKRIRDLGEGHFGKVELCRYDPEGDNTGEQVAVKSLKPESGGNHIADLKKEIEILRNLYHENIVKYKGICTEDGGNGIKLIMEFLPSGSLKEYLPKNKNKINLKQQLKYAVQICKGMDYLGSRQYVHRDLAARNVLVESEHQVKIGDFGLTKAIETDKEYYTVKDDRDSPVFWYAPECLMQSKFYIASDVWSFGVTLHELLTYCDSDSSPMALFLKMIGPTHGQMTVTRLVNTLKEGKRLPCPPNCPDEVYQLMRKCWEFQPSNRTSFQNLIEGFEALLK
UniProt P26639: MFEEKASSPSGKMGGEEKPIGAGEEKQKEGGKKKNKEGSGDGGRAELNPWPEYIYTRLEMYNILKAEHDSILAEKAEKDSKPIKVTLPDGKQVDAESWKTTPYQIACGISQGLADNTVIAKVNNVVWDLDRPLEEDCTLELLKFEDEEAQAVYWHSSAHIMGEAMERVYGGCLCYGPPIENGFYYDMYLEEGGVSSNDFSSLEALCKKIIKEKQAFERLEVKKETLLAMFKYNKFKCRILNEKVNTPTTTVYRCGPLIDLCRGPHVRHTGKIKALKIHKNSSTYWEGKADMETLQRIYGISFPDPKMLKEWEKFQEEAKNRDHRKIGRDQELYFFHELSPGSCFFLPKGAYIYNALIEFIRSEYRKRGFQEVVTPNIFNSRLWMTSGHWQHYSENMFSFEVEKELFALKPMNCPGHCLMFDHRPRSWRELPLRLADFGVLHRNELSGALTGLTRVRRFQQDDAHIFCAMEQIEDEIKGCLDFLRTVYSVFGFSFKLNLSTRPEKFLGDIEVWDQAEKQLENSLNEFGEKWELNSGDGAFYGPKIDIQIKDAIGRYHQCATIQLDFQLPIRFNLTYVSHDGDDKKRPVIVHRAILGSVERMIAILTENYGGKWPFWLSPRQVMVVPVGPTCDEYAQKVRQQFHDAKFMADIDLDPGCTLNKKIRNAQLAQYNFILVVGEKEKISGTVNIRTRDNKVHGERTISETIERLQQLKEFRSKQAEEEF
UniProt P33897: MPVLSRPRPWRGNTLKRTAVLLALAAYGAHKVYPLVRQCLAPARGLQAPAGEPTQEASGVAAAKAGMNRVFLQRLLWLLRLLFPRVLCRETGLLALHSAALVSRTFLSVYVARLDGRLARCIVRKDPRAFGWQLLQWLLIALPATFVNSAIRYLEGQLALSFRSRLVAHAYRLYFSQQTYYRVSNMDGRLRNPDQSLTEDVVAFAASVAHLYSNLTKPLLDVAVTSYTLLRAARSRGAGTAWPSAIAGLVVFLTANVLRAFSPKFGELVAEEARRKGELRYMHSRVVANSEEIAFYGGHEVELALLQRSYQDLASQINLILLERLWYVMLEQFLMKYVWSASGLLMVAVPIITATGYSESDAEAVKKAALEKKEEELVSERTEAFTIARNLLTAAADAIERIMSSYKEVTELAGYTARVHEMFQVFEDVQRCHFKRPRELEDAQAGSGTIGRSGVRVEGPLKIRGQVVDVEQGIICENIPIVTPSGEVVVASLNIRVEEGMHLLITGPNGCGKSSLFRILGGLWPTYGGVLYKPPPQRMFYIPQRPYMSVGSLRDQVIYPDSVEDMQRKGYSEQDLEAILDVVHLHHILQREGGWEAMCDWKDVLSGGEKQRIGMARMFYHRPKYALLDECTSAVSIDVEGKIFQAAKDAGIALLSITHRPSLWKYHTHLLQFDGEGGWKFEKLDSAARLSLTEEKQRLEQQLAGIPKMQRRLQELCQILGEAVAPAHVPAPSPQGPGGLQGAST
UniProt P20701: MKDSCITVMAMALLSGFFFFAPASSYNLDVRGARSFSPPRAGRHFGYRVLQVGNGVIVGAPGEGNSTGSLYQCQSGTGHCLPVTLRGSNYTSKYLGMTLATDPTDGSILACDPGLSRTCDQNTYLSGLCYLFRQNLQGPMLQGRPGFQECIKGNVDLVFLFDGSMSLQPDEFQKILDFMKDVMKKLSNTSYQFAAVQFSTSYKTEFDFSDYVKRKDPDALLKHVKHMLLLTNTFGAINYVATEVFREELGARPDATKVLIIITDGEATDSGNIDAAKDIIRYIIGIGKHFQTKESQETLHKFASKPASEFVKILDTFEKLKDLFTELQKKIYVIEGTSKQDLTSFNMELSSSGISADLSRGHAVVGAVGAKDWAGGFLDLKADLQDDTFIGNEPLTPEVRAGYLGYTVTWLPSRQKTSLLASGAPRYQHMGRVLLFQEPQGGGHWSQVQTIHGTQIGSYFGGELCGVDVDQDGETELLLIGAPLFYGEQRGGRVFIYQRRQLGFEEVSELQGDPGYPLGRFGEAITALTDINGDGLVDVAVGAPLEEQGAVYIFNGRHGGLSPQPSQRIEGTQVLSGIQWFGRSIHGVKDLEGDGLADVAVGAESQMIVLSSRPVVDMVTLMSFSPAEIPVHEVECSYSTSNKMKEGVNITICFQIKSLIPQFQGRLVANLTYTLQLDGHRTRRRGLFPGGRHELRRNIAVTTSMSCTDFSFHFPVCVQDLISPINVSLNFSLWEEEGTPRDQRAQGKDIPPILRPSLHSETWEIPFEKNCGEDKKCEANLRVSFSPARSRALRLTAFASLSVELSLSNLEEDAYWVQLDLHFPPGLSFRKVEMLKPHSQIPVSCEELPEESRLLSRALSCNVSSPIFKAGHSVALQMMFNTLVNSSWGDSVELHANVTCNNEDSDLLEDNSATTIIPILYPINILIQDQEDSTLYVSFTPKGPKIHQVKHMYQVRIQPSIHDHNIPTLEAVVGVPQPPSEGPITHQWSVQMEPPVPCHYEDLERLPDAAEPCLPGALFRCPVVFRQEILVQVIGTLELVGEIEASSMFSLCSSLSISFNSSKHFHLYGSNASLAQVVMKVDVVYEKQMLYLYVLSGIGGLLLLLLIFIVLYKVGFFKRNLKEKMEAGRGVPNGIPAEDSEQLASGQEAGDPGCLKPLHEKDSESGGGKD

Compound: Nc1ncnc2c1ncn2[C@@H]1O[C@H](COP(=O)(O)OP(=O)(O)OP(=O)(O)O)[C@@H](O)[C@H]1O [adenosine triphosphate]
Assay: NP40-soluble protein abundance relative to vehicle (solubility fold change) (ratio); higher = more soluble protein in presence of ATP
Summary of the method: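 Data come from three independent experiments in which Dounce-homogenised Jurkat crude lysate was treated at eight concentrations from 0.1 to 10 mM. Treatment ran 10 min at room temperature and then 3 min at 37 °C, after which 0.8% NP40 and benzonase were added for 60 min at 4 °C before ultracentrifugation. The supernatant underwent TMT labelling and LC-MS/MS, and vsn-normalised intensities were expressed as fold change against the detergent-processed vehicle in each replicate.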

GCSH (UniProt P23434)
NP40-soluble protein abundance (concentration: 0.1mM): 0.972 ± 0.058
NP40-soluble protein abundance (concentration: 0.5mM): 0.96 ± 0.042
NP40-soluble protein abundance (concentration: 1mM): 0.985 ± 0.048
NP40-soluble protein abundance (concentration: 2mM): 0.971 ± 0.024
NP40-soluble protein abundance (concentration: 4mM): 0.986 ± 0.051
NP40-soluble protein abundance (concentration: 6mM): 1.03 ± 0.05
NP40-soluble protein abundance (concentration: 8mM): 0.915 ± 0.051
NP40-soluble protein abundance (concentration: 10mM): 0.927 ± 0.092

ZNF8 (UniProt P17098)
NP40-soluble protein abundance (concentration: 0.1mM): 1.03 ± 0.045
NP40-soluble protein abundance (concentration: 0.5mM): 1.01 ± 0.066

SRM (UniProt P19623)
NP40-soluble protein abundance (concentration: 0.1mM): 1.06 ± 0.11
NP40-soluble protein abundance (concentration: 0.5mM): 1.05 ± 0.068
NP40-soluble protein abundance (concentration: 1mM): 1.03 ± 0.12
NP40-soluble protein abundance (concentration: 2mM): 1.01 ± 0.1
NP40-soluble protein abundance (concentration: 4mM): 1 ± 0.083
NP40-soluble protein abundance (concentration: 6mM): 0.929 ± 0.12
NP40-soluble protein abundance (concentration: 8mM): 0.998 ± 0.071
NP40-soluble protein abundance (concentration: 10mM): 0.997 ± 0.068

UniProt P26368 and related entries
NP40-soluble protein abundance (concentration: 0.1mM): 1.22 ± 0.058
NP40-soluble protein abundance (concentration: 0.5mM): 1.92 ± 0.096
NP40-soluble protein abundance (concentration: 1mM): 1.96 ± 0.078
NP40-soluble protein abundance (concentration: 2mM): 1.99 ± 0.078
NP40-soluble protein abundance (concentration: 4mM): 2.01 ± 0.076
NP40-soluble protein abundance (concentration: 6mM): 2.06 ± 0.032
NP40-soluble protein abundance (concentration: 8mM): 2.11 ± 0.079
NP40-soluble protein abundance (concentration: 10mM): 2.09 ± 0.12

UniProt P28908 and related entries
NP40-soluble protein abundance (concentration: 0.1mM): 1.06 ± 0.078
NP40-soluble protein abundance (concentration: 0.5mM): 0.973 ± 0.068
NP40-soluble protein abundance (concentration: 1mM): 0.986 ± 0.073
NP40-soluble protein abundance (concentration: 2mM): 0.999 ± 0.0037
NP40-soluble protein abundance (concentration: 4mM): 1.08 ± 0.13
NP40-soluble protein abundance (concentration: 6mM): 0.992 ± 0.073
NP40-soluble protein abundance (concentration: 8mM): 0.951 ± 0.041
NP40-soluble protein abundance (concentration: 10mM): 0.964 ± 0.026

GSTM2 (UniProt P28161)
NP40-soluble protein abundance (concentration: 0.1mM): 0.974 ± 0.095
NP40-soluble protein abundance (concentration: 0.5mM): 0.992 ± 0.045
NP40-soluble protein abundance (concentration: 1mM): 0.96 ± 0.07
NP40-soluble protein abundance (concentration: 2mM): 0.952 ± 0.054
NP40-soluble protein abundance (concentration: 4mM): 0.886 ± 0.043
NP40-soluble protein abundance (concentration: 6mM): 0.889 ± 0.035
NP40-soluble protein abundance (concentration: 8mM): 0.911 ± 0.058
NP40-soluble protein abundance (concentration: 10mM): 0.861 ± 0.056

JAK1 (UniProt P23458)
NP40-soluble protein abundance (concentration: 0.1mM): 1.143 ± 0.01
NP40-soluble protein abundance (concentration: 0.5mM): 1.18 ± 0.016
NP40-soluble protein abundance (concentration: 1mM): 1.21 ± 0.015
NP40-soluble protein abundance (concentration: 2mM): 1.21 ± 0.022
NP40-soluble protein abundance (concentration: 4mM): 1.23 ± 0.032
NP40-soluble protein abundance (concentration: 6mM): 1.16 ± 0.043
NP40-soluble protein abundance (concentration: 8mM): 1.27 ± 0.047
NP40-soluble protein abundance (concentration: 10mM): 1.26 ± 0.041

UniProt P26639
NP40-soluble protein abundance (concentration: 0.1mM): 1.05 ± 0.092
NP40-soluble protein abundance (concentration: 0.5mM): 1.05 ± 0.07
NP40-soluble protein abundance (concentration: 1mM): 1 ± 0.1
NP40-soluble protein abundance (concentration: 2mM): 0.988 ± 0.075
NP40-soluble protein abundance (concentration: 4mM): 0.95 ± 0.078
NP40-soluble protein abundance (concentration: 6mM): 0.928 ± 0.11
NP40-soluble protein abundance (concentration: 8mM): 0.989 ± 0.054
NP40-soluble protein abundance (concentration: 10mM): 0.949 ± 0.042

ABCD1 (UniProt P33897)
NP40-soluble protein abundance (concentration: 0.1mM): 1.12 ± 0.09
NP40-soluble protein abundance (concentration: 0.5mM): 1.08 ± 0.023

UniProt P20701 and related entries
NP40-soluble protein abundance (concentration: 0.1mM): 0.9678 ± 0.0053
NP40-soluble protein abundance (concentration: 0.5mM): 0.958 ± 0.015
